# Measured values reported in patent US20230058961A1, “SUBSTITUTED HETEROCYCLICS WITH THERAPEUTIC ACTIVITY IN HIV” (New York Blood Center, Inc., priority 2019, published 2023).
# Some of these results come from one statement about several compounds together.
# Test system: TZM-bl cells
# Settings: cytotoxicity, MTS, 3 days
row,Compound,CC50
1,"NCC(NC(=O)c1ccc(-c2ccc(Cl)nc2)[nH]1)c1nc(CO)cs1 (stereo not shown) [Compound 40, N-(2-Amino-1-(4-(hydroxymethyl)thiazol-2-yl)ethyl)-5-(6-chloropyridin-3-yl)-1H-pyrrole-2-carboxamide]",> 100 µM
2,"NCC(NC(=O)c1ccc(-c2ccc(Cl)cn2)[nH]1)c1ncc(CO)s1 (stereo not shown) [Compound 2, N-(2-Amino-1-(5-(hydroxymethyl)thiazol-2-yl)ethyl)-5-(5-chloropyridin-2-yl)-1H-pyrrole-2-carboxamide]",> 100 µM
3,"NCC(NC(=O)c1ccc(-c2ccc(C(F)(F)F)cn2)[nH]1)c1nc(C(O)CO)cs1 (stereo not shown) [Compound 30, N-(2-Amino-1-(4-(1,2-dihydroxyethyl)thiazol-2-yl)ethyl)-5-(5-(trifluoromethyl)pyridin-2-yl)-1H-pyrrole-2-carboxamide]",> 100 µM
4,"Cc1cc(-c2ccc(C(F)(F)F)cn2)[nH]c1C(=O)NC(c1ncc(CO)s1)C(C)(C)N (stereo not shown) [Compound 12, N-(2-Amino-1-(5-(hydroxymethyl)thiazol-2-yl)-2-methylpropyl)-3-methyl-5-(5-(trifluoro-methyl)pyridin-2-yl)-1H-pyrrole-2-carboxamide]",< 50 µM
5,"NCC(NC(=O)c1ccc(-c2ccc(F)cn2)[nH]1)c1nc(CO)cs1 (stereo not shown) [Compound 18, N-(2-Amino-1-(4-(hydroxymethyl)thiazol-2-yl)ethyl)-5-(5-fluoropyridin-2-yl)-1H-pyrrole-2-carboxamide]",> 100 µM
6,"NCC(NC(=O)c1ccc(-c2ccc(Cl)cn2)[nH]1)c1nc(CO)cs1 (stereo not shown) [Compound 16, N-(2-Amino-1-(4-(hydroxymethyl)thiazol-2-yl)ethyl)-5-(5-chloropyridin-2-yl)-1H-pyrrole-2-carboxamide]",> 100 µM
7,"Cc1ccc(-c2ccc(C(=O)NC(CN)c3nc(CO)cs3)[nH]2)nc1 (stereo not shown) [Compound 20, N-(2-Amino-1-(4-(hydroxymethyl)thiazol-2-yl)ethyl)-5-(5-methylpyridin-2-yl)-1H-pyrrole-2-carboxamide]",> 100 µM
8,"NCC(NC(=O)c1ccc(-c2ccc(C(F)(F)F)nc2)[nH]1)c1nc(CO)cs1 (stereo not shown) [Compound 42, N-(2-Amino-1-(4-(hydroxymethyl)thiazol-2-yl)ethyl)-5-(6-(trifluoromethyl)pyridin-3-yl)-1H-pyrrole-2-carboxamide]",> 100 µM
9,"NCC(NC(=O)c1ccc(-c2ccc(C(F)(F)F)cn2)[nH]1)c1ncc(C(O)CO)s1 (stereo not shown) [Compound 14, N-(2-Amino-1-(5-(1,2-dihydroxyethyl)thiazol-2-yl)ethyl)-5-(5-(trifluoromethyl)pyridin-2-yl)-1H-pyrrole-2-carboxamide]",> 100 µM
10,"CC(C)(N)C(NC(=O)c1ccc(-c2ccc(C(F)(F)F)cn2)[nH]1)c1nc(CO)cs1 (stereo not shown) [Compound 24, N-(2-Amino-1-(4-(hydroxymethyl)thiazol-2-yl)-2-methylpropyl)-5-(5-(trifluoromethyl)pyridin-2-yl)-1H-pyrrole-2-carboxamide]",< 50 µM
